Laboratory results reported in paper PMC7532188.

Biological target: T1, HA-BirA-TASOR, full-length (human), Q9UK61
T1 chain: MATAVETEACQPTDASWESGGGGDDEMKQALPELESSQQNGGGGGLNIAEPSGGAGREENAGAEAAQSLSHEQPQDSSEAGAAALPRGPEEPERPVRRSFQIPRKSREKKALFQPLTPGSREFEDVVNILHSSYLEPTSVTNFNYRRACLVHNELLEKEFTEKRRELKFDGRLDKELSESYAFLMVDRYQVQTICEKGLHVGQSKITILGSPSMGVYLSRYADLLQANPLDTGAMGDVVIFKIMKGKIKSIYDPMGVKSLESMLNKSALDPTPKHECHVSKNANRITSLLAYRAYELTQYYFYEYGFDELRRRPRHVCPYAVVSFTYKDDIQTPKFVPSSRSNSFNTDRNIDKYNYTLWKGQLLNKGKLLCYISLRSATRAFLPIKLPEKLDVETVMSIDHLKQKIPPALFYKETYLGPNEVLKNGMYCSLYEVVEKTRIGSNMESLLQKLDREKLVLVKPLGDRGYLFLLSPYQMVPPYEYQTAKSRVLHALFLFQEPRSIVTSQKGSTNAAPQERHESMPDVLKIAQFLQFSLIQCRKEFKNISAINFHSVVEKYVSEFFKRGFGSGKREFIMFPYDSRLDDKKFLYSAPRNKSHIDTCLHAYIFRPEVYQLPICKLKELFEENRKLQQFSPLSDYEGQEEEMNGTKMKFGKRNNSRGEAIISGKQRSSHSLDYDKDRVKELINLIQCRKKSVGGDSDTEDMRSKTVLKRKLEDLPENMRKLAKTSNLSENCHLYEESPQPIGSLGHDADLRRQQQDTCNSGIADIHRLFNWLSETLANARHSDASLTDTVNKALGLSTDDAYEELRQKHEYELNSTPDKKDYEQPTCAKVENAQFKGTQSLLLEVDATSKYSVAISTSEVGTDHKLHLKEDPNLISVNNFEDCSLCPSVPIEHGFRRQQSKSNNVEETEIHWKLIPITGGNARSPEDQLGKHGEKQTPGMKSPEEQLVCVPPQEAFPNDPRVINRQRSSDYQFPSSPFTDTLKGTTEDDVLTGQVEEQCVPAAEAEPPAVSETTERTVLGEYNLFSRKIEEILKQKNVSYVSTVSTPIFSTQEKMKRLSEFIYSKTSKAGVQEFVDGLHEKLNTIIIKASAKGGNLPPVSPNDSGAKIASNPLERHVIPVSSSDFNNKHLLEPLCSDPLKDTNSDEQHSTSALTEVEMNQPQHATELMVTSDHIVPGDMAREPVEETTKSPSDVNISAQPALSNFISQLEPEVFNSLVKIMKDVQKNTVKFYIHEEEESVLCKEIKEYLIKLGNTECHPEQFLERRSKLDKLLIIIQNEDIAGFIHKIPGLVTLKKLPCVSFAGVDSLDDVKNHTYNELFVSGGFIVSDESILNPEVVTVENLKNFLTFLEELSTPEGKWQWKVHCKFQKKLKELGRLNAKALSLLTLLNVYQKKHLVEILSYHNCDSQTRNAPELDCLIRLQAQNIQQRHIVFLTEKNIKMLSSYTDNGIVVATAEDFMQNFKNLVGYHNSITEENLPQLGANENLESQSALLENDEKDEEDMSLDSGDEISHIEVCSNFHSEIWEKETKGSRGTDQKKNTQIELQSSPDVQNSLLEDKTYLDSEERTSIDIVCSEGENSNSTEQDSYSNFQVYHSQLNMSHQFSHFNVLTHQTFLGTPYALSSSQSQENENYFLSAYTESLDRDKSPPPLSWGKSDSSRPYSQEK
Test: proximity labelling; BioID: HA-BirA-tagged TASOR variants in TASOR knockout cells, 50 μM biotin for 18 h, nuclei lysed, streptavidin beads, mass spectrometry; control: TASOR knockout cells with biotin but without BirA-tagged TASOR
Conditions: remark: other sources report otherwise

binding: no binding
B1: MORC2, Q9Y6X9 1-1032 (protein)
chain: MAFTNYSSLNRAQLTFEYLHTNSTTHEFLFGALAELVDNARDADATRIDIYAERREDLRGGFMLCFLDDGAGMDPSDAASVIQFGKSAKRTPESTQIGQYGNGLKSGSMRIGKDFILFTKKEDTMTCLFLSRTFHEEEGIDEVIVPLPTWNARTREPVTDNVEKFAIETELIYKYSPFRTEEEVMTQFMKIPGDSGTLVIIFNLKLMDNGEPELDIISNPRDIQMAETSPEGTKPERRSFRAYAAVLYIDPRMRIFIHGHKVQTKRLSCCLYKPRMYKYTSSRFKTRAEQEVKKAEHVARIAEEKAREAESKARTLEVRLGGDLTRDSRVMLRQVQNRAITLRREADVKKRIKEAKQRALKEPKELNFVFGVNIEHRDLDGMFIYNCSRLIKMYEKVGPQLEGGMACGGVVGVVDVPYLVLEPTHNKQDFADAKEYRHLLRAMGEHLAQYWKDIAIAQRGIIKFWDEFGYLSANWNQPPSSELRYKRRRAMEIPTTIQCDLCLKWRTLPFQLSSVEKDYPDTWVCSMNPDPEQDRCEASEQKQKVPLGTFRKDMKTQEEKQKQLTEKIRQQQEKLEALQKTTPIRSQADLKKLPLEVTTRPSTEEPVRRPQRPRSPPLPAVIRNAPSRPPSLPTPRPASQPRKAPVISSTPKLPALAAREEASTSRLLQPPEAPRKPANTLVKTASRPAPLVQQLSPSLLPNSKSPREVPSPKVIKTPVVKKTESPIKLSPATPSRKRSVAVSDEEEVEEEAERRKERCKRGRFVVKEEKKDSNELSDSAGEEDSADLKRAQKDKGLHVEVRVNREWYTGRVTAVEVGKHVVRWKVKFDYVPTDTTPRDRWVEKGSEDVRLMKPPSPEHQSLDTQQEGGEEEVGPVAQQAIAVAEPSTSECLRIEPDTTALSTNHETIDLLVQILRNCLRYFLPPSFPISKKQLSAMNSDELISFPLKEYFKQYEVGLQNLCNSYQSRADSRAKASEESLRTSERKLRETEEKLQKLRTNIVALLQKVQEDIDINTDDELDAYIEDLITKGD

No constants are given. Whether binding was seen depends on the method and setting. In cells and extracts the contact can be indirect. A yes stands for co-enrichment or nearness to the bait. Other partners may have been found. A no says only that the protein was not detected with the bait. Tags and fused reporters may be left off the sequences shown.
